Numbering of substitutions follows the chain as printed. The comparison behind a weaker result is the experiment's own reference, which may not be listed here. Protein sequences can lack the tags named with them. For part of these data: The exact form of at least one protein or probe is not confirmed. For part of these data: At least one verdict rests on a figure or table, not on a statement of the authors.
Experiments:
[1] = molecular target: T1, WUS-HD F85A (Arabidopsis thaliana) (UniProt Q9SB92); test: EMSA; conditions: largely impaired, no distinct shift, probe called 2xTGAA; EMSA: 10 mM Tris-HCl pH 8.0, 75 mM NaCl, 50 ug/ml poly(dI-dC), 1 mM EDTA, 1 mM DTT, 5% glycerol; recombinant protein; residues 34-103; label: Cy5
T1 sequence (looked up): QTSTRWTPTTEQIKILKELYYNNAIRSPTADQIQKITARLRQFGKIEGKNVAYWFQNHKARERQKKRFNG

[2] = molecular target: T2, WUS-HD R94K (Arabidopsis thaliana) (UniProt Q9SB92); test: EMSA; conditions: no distinct shift; EMSA: 10 mM Tris-HCl pH 8.0, 75 mM NaCl, 50 ug/ml poly(dI-dC), 1 mM EDTA, 1 mM DTT, 5% glycerol; recombinant protein; residues 34-103; label: Cy5
T2 sequence (looked up): T1 sequence (looked up) with A52F, R61K

[3] = molecular target: T3, WUS-HD I66A (Arabidopsis thaliana) (UniProt Q9SB92); test: EMSA; conditions: largely impaired, no distinct shift, probe called 2xTGAA; EMSA: 10 mM Tris-HCl pH 8.0, 75 mM NaCl, 50 ug/ml poly(dI-dC), 1 mM EDTA, 1 mM DTT, 5% glycerol; recombinant protein; residues 34-103; label: Cy5
T3 sequence (looked up): T1 sequence (looked up) with I33A, A52F

[4] = molecular target: T4, WUS-HD RRK T35R,S36R,R94K (Arabidopsis thaliana) (UniProt Q9SB92); test: EMSA; conditions: intermediate binding; EMSA: 10 mM Tris-HCl pH 8.0, 75 mM NaCl, 50 ug/ml poly(dI-dC), 1 mM EDTA, 1 mM DTT, 5% glycerol; recombinant protein; residues 34-103; label: Cy5
T4 sequence (looked up): T1 sequence (looked up) with T2R, S3R, A52F, R61K

[5] = molecular target: T5, YFP-WUS-HD (Arabidopsis thaliana) (UniProt Q9SB92); test: MST; conditions: no further loss from spacer; MST: 20 mM Tris-HCl pH 8.0, 75 mM NaCl, 10 mM MgCl2, 0.05% Tween-20, 20 C, 50 nM YFP-WUS; recombinant protein; residues 34-103; protein details: N-terminal His6-YFP, C-terminal StrepII
T5 sequence (looked up): T1 sequence (looked up) with A52F

## CATCGTCGTTCATTCAATGGG (double strand) [f_TGAA]
[1]
  binding result: binds more weakly
[2]
  binding result: binds more weakly
[3]
  binding result: binds more weakly
[4]
  binding result: binds more weakly

## CGCTGAACTTCACGCC (double strand) [TGAA Tail-to-Tail 1xSpacing]
[5]
  binding result: binds more weakly

## CGCTTCACTGAACGCC (double strand) [TGAA Head-to-Head 1xSpacing]
[5]
  binding result: binds more weakly
